PubChem BioAssay AID1259424 | University of Nebraska Medical Center, 2018
Aim: 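Rank knockdowns across the genome by resemblance to the KSR1 depletion profile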 (primary screen). Cell system: human HCT116 colon cancer cells. Knock-down reagent: siRNA pool against human genes, 50 nM. Read-out: 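Six signature mRNAs by branched-DNA multiplex assay, scaled to two housekeeping genes and non-targeting median, log2; matched to mean KSR1 knockdown profile by Pearson correlation and euclidean distance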. Direction: mean correlation with KSR1 profile and KSR1 correlation: higher = expression change more like KSR1 knockdown; mean distance from KSR1 profile: higher = expression change less like KSR1 knockdown.
The whole screen tested about 14,000 reagents; this is a part drawn at random. 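Higher correlation or smaller distance means closer resemblance to KSR1 loss; control wells, including KSR1 knockdowns, recur on many plates.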 The record does not give: the time to read-out.

no.	Target gene	PubChem SID	mean correlation with KSR1 profile	mean distance from KSR1 profile	KSR1 correlation, replicate 1	KSR1 correlation, replicate 2	KSR1 correlation, replicate 3
1	JCAD	SID364005297	-0.634	1.81	-0.53	-0.952	-0.682
2	IL12A	SID363992168	0.121	1.8	0.161	-0.0418	-0.000887
3	SPIB	SID363994262	0.218	2.7	0.00754	0.45	0.4
4	PGR	SID363992211	0.105	1.64	0.11	0.329	-0.126
5	SLC25A3	SID363993803	0.334	0.796	0.616	0.817	-0.603
6	BRINP1	SID363998987	-0.379	2.01	-0.516	-0.424	-0.41
7	CDH23	SID364002351	0.161	2.82	0.351	0.125	0.0736
8	FAM13B	SID364000227	-0.0278	1.44	-0.0725	0.211	0.178
9	DES	SID363993140	-0.286	2.71	-0.139	-0.0501	-0.519
10	KAT7	SID363997797	-0.0431	1.4	0	-0.169	0.185
11	LINC00115	SID364003067	0.38	1.78	0.496	0.407	0.258
12	ZNF547	SID364004836	0.106	1.53	0.259	0.184	0.0633
13	PTGFRN	SID364005132	-0.697	2.75	-0.535	-0.804	-0.638
14	RABGAP1L	SID363999148	-0.183	2.44	-0.277	-0.366	-0.275
15	MAN2A2	SID363996963	-0.637	1.76	-0.687	-0.87	-0.36
16	EXOSC9	SID363995972	0.581	1.37	0.57	0.796	0.143
17	ABHD18	SID364003246	0.239	1.74	0.207	-0.0308	0.206
18	PRAC1	SID364003965	0.771	2.19	0.663	0.681	0.668
19	CDK5	SID363995879	0.108	2.17	0.136	0.0925	-0.294

3 successive entries from above:
no.	Target gene	PubChem SID	mean correlation with KSR1 profile	mean distance from KSR1 profile	KSR1 correlation, replicate 1	KSR1 correlation, replicate 2	KSR1 correlation, replicate 3
9	DES	SID363993140	-0.286	2.71	-0.139	-0.0501	-0.519
10	KAT7	SID363997797	-0.0431	1.4	0	-0.169	0.185
11	LINC00115	SID364003067	0.38	1.78	0.496	0.407	0.258

The list goes on:
no.	Target gene	PubChem SID	mean correlation with KSR1 profile	mean distance from KSR1 profile	KSR1 correlation, replicate 1	KSR1 correlation, replicate 2	KSR1 correlation, replicate 3
20	TRIM28	SID363996643	0.239	1.72	0.164	-0.0164	0.394
21	CBFB	SID363992975	0.108	2.26	0.106	0.0467	0.299
22	ARL4C	SID363996622	-0.432	3.06	-0.399	-0.453	-0.423
23	TNFRSF1B	SID363992363	0.487	3.42	0.619	0.464	0.372
24	MCMBP	SID364003099	0.61	1.27	0.649	0.659	0.573
25	BCHE	SID363991393	-0.286	1.4	-0.439	-0.131	-0.295
26	HTR1A	SID363991847	0.183	3.23	0.248	0.147	0.191
27	DRD3	SID363992086	0.451	1.71	0.271	0.411	0.528
28	PPIL4	SID364004598	0.578	1.41	0.509	0.396	0.453
29	GOLGA2P10	SID364003241	0.0639	2.57	-0.142	0.539	-0.298
30	BAHD1	SID363999220	0.266	1.12	0.428	0.0617	0.15
31	CDC42EP4	SID363998069	-0.694	2.42	-0.374	-0.787	-0.705
32	PGM2	SID364000947	-0.162	2.21	-0.0518	0.00227	-0.399
33	NEFL	SID363996987	-0.303	4.66	-0.212	-0.426	-0.334
34	RPS4Y1	SID363992305	-0.00085	1.65	0.0386	-0.102	0.044
35	CDC42EP3	SID363997258	0.559	2.74	0.544	0.633	0.642
36	HPSE2	SID364002208	0.203	1.34	0.0554	0.152	0.374
37	MAPK8IP2	SID363998234	0.727	2.8	0.78	0.855	0.148
38	COPS5	SID363997602	-0.528	4.27	-0.512	-0.506	-0.509
39	SUGCT	SID364003009	0.608	2.22	0.63	0.696	0.519
40	IL20RA	SID363998848	-0.57	2.73	-0.57	-0.587	-0.673
41	CS	SID363995087	-0.424	1.8	-0.487	-0.0535	-0.58
42	RAB38	SID364002397	-0.49	3.68	-0.423	-0.557	-0.523
43	LAMA1	SID363996459	0.311	1.22	0.529	0.142	0.16
44	PRG4	SID363996685	-0.0468	1.99	-0.175	-0.051	-0.0258
45	TLK2	SID363997616	-0.686	2.34	-0.607	-0.689	-0.68
46	EXT1	SID363991463	-0.0555	2.26	0.258	0.294	-0.0271
47	TMCC2	SID363999149	-0.959	1.57	-0.689	-0.813	-0.828
48	MYNN	SID364001156	-0.564	1.28	-0.732	-0.229	0.231
49	MAGI1	SID363995701	0.78	1.17	0.77	0.804	0.773
50	MYH7	SID363991590	0.475	1.14	0.651	0.397	0.433
